The record followed here is paper PMC8599867.

Sequences of proteins named here, by UniProt entry; tags and fusion partners are left off.
UniProt Q13523: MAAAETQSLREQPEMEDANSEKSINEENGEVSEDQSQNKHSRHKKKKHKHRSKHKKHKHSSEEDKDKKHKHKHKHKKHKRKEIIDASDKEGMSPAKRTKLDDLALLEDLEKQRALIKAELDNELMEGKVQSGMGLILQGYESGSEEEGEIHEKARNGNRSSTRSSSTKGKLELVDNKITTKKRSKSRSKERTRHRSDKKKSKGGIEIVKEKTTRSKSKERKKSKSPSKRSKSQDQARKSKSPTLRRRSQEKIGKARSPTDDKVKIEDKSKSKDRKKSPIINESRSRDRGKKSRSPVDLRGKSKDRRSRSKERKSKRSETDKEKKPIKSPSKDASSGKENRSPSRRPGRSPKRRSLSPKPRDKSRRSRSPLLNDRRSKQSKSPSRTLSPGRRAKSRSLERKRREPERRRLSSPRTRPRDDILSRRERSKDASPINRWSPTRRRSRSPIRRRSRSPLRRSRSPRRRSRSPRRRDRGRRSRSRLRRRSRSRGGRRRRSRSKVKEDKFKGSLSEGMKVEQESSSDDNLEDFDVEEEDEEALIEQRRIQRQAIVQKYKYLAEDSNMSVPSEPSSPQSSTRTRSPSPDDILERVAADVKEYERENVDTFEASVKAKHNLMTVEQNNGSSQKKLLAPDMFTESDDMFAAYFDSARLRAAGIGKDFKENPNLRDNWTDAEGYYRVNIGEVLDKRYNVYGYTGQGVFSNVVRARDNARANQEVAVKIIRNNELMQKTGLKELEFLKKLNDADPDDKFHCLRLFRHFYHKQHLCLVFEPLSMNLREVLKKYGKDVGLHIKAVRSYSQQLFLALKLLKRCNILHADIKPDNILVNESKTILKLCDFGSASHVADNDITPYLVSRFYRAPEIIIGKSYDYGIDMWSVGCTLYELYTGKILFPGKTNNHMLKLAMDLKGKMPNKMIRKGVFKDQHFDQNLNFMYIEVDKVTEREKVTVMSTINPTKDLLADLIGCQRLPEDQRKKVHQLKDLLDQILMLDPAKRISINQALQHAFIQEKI
UniProt P38432: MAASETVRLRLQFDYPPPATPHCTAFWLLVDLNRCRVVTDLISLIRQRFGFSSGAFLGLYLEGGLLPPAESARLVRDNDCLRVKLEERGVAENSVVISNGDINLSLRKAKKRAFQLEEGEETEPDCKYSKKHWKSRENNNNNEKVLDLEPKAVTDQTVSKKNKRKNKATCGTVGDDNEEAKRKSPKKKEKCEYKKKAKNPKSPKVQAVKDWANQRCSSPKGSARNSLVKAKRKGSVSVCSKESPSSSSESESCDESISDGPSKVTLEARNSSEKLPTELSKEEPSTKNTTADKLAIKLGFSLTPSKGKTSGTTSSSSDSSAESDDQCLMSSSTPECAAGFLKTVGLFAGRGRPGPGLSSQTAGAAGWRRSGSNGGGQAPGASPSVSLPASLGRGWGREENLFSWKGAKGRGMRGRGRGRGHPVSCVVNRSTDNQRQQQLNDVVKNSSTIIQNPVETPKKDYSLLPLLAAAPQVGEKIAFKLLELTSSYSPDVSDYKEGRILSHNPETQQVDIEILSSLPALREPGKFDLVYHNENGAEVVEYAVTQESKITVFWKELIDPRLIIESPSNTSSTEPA
UniProt O75643: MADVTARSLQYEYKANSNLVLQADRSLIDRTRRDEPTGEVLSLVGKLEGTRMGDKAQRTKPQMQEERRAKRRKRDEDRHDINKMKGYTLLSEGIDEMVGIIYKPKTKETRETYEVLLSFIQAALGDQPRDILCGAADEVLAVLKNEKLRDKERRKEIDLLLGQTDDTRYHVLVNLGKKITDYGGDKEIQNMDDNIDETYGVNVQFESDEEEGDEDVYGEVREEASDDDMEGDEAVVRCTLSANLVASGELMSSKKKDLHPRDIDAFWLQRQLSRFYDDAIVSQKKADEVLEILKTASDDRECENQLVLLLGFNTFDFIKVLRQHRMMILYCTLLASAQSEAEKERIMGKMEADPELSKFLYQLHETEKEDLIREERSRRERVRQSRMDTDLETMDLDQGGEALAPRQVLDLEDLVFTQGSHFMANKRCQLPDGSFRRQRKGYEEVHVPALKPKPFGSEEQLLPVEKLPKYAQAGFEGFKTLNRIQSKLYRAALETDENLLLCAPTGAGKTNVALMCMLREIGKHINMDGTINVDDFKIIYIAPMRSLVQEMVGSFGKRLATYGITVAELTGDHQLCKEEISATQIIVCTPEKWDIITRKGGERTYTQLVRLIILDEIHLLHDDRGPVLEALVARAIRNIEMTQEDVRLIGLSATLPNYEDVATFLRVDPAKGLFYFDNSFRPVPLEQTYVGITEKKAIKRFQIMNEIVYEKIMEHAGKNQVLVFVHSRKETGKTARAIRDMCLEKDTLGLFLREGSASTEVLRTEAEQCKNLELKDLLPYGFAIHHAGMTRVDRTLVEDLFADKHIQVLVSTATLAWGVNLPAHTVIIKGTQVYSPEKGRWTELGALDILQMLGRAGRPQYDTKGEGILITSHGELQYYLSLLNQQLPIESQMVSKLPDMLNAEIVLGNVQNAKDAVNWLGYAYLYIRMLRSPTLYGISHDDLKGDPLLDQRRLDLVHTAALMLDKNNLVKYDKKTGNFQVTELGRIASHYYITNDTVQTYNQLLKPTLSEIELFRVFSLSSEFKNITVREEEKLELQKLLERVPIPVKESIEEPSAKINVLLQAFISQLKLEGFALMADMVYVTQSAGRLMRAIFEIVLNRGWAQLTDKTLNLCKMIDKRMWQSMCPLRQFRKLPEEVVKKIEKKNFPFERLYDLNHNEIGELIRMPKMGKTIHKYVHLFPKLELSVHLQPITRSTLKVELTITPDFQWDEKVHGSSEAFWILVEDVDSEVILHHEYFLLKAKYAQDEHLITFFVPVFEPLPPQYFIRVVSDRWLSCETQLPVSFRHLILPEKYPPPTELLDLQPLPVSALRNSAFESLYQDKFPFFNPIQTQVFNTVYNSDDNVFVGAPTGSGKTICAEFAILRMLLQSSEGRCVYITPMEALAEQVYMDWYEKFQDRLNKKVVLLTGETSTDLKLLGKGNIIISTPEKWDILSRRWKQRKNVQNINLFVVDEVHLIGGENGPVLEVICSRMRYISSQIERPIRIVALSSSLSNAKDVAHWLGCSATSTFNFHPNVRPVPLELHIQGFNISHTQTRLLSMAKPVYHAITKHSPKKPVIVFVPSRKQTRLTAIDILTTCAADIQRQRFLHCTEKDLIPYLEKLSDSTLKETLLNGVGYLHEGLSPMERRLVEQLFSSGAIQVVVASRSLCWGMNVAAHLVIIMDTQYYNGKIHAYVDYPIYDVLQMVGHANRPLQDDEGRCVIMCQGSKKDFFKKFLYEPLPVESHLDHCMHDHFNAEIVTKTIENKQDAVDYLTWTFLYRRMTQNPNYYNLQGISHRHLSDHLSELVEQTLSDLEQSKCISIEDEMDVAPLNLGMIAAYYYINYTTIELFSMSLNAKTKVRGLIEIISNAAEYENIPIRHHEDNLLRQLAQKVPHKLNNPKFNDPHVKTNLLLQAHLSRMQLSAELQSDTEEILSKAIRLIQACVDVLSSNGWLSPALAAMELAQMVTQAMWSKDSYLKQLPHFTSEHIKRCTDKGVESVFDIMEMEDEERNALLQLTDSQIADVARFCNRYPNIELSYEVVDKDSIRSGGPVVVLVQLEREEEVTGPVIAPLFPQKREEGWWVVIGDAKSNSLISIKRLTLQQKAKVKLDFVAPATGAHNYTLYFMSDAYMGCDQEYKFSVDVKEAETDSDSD

For test [1], the target named is T1, TFIP11 (human (endogenous in HeLa)) (UniProt Q9UBB9).
T1 sequence: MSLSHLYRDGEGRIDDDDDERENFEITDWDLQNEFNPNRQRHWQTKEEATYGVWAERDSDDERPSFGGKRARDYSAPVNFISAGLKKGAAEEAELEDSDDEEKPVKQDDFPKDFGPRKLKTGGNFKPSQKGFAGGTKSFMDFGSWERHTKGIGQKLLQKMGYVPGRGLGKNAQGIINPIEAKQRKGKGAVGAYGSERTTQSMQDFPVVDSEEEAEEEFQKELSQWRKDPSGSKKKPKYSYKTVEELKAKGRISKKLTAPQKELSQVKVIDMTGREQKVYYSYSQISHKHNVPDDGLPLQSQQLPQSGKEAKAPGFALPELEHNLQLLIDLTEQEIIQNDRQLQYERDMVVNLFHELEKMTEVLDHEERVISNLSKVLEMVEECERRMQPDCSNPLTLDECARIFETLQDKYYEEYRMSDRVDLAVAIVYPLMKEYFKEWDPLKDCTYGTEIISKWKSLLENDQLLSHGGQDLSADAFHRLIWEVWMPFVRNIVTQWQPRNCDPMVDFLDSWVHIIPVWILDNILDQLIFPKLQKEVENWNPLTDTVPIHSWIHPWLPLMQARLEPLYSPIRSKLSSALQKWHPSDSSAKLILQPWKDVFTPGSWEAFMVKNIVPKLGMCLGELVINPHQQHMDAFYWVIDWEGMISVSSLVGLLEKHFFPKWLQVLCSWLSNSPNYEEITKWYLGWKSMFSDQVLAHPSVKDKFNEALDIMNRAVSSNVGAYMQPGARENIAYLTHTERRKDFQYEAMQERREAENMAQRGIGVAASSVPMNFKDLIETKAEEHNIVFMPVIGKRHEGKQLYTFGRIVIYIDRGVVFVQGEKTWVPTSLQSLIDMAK
Description: co-IP; IP of endogenous TFIP11 from HeLa cell extracts in a high-salt concentration buffer (500 mM NaCl), western blotting for snRNP-specific proteins.

The target of a further test is T2, TFIP11-FLAG (human) (UniProt Q9UBB9).
T2 sequence: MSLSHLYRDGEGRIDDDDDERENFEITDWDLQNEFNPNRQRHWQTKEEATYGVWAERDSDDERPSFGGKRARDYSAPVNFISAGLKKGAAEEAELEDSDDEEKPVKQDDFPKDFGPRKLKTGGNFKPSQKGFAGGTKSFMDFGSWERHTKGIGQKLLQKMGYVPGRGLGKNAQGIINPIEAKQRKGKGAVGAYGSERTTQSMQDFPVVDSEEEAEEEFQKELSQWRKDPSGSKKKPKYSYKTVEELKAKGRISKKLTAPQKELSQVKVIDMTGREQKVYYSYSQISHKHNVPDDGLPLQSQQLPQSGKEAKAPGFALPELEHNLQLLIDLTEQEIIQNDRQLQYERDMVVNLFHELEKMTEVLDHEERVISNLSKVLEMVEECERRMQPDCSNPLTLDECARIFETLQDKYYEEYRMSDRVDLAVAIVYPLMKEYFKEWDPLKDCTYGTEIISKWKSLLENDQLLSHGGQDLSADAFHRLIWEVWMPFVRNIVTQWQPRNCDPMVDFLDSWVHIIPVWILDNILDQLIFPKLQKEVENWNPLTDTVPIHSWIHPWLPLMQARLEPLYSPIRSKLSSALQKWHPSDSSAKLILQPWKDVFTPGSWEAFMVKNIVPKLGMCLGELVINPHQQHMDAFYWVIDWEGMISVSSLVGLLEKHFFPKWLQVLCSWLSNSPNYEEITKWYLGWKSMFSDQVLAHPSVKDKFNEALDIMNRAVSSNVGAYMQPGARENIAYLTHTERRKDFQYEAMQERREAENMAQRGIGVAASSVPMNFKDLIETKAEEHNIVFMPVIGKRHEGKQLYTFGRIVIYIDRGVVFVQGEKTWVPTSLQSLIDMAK
As to the kind of experiment: co-IP; HeLa cells co-transfected with RFP-coilin and TFIP11-FLAG constructs; IP with anti-FLAG antibodies, western blotting. (In western blotting, separated proteins are transferred to a membrane and probed.)

Test [2] addresses T3, fibrillarin (human (endogenous in HeLa)) (UniProt P22087).
T3 sequence: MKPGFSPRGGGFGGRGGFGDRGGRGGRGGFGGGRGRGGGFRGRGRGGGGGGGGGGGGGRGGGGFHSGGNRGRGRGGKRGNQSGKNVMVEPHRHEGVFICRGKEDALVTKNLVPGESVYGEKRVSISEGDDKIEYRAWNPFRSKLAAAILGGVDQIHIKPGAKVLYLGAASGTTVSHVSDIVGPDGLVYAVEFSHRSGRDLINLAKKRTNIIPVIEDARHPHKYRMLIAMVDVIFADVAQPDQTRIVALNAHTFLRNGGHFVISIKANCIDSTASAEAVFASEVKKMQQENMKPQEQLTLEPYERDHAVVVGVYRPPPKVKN
As to the kind of experiment: co-IP; endogenous proteins from HeLa cells lysed in RIPA buffer, sonicated, diluted with 50 mM Tris-HCl pH 7.5, 150 mM NaCl; antibodies on agarose beads, 4 C overnight; IgG of the corresponding species as negative control; western blotting.

No constants are given. Whether binding was seen depends on the method and setting. Binding seen in cells or lysates may run through a third protein. Some binding calls cover weakened binding; strength is not graded here. For some assays here: Tags and fused reporters may be left off the sequences shown.

Regarding “Prp4K (from UniProt Q13523 1-1007) (enzyme)”, the binding result in test [1] was “binds”. Regarding RFP-coilin (from UniProt P38432 1-576), in the test with TFIP11-FLAG (human), the binding result was “binds”. In the case of “SNRNP200 (from UniProt O75643 1-2136) (enzyme)”, the binding entry in test [1] is “binds”.

B1: TFIP11 (protein, UniProt Q9UBB9 1-837)
chain: MSLSHLYRDGEGRIDDDDDERENFEITDWDLQNEFNPNRQRHWQTKEEATYGVWAERDSDDERPSFGGKRARDYSAPVNFISAGLKKGAAEEAELEDSDDEEKPVKQDDFPKDFGPRKLKTGGNFKPSQKGFAGGTKSFMDFGSWERHTKGIGQKLLQKMGYVPGRGLGKNAQGIINPIEAKQRKGKGAVGAYGSERTTQSMQDFPVVDSEEEAEEEFQKELSQWRKDPSGSKKKPKYSYKTVEELKAKGRISKKLTAPQKELSQVKVIDMTGREQKVYYSYSQISHKHNVPDDGLPLQSQQLPQSGKEAKAPGFALPELEHNLQLLIDLTEQEIIQNDRQLQYERDMVVNLFHELEKMTEVLDHEERVISNLSKVLEMVEECERRMQPDCSNPLTLDECARIFETLQDKYYEEYRMSDRVDLAVAIVYPLMKEYFKEWDPLKDCTYGTEIISKWKSLLENDQLLSHGGQDLSADAFHRLIWEVWMPFVRNIVTQWQPRNCDPMVDFLDSWVHIIPVWILDNILDQLIFPKLQKEVENWNPLTDTVPIHSWIHPWLPLMQARLEPLYSPIRSKLSSALQKWHPSDSSAKLILQPWKDVFTPGSWEAFMVKNIVPKLGMCLGELVINPHQQHMDAFYWVIDWEGMISVSSLVGLLEKHFFPKWLQVLCSWLSNSPNYEEITKWYLGWKSMFSDQVLAHPSVKDKFNEALDIMNRAVSSNVGAYMQPGARENIAYLTHTERRKDFQYEAMQERREAENMAQRGIGVAASSVPMNFKDLIETKAEEHNIVFMPVIGKRHEGKQLYTFGRIVIYIDRGVVFVQGEKTWVPTSLQSLIDMAK
Consider B1, for which, in test [2], the binding result was “no binding”.

B2: SART3 (protein, UniProt Q15020 1-963)
chain: MATAAETSASEPEAESKAGPKADGEEDEVKAARTRRKVLSRAVAAATYKTMGPAWDQQEEGVSESDGDEYAMASSAESSPGEYEWEYDEEEEKNQLEIERLEEQLSINVYDYNCHVDLIRLLRLEGELTKVRMARQKMSEIFPLTEELWLEWLHDEISMAQDGLDREHVYDLFEKAVKDYICPNIWLEYGQYSVGGIGQKGGLEKVRSVFERALSSVGLHMTKGLALWEAYREFESAIVEAARLEKVHSLFRRQLAIPLYDMEATFAEYEEWSEDPIPESVIQNYNKALQQLEKYKPYEEALLQAEAPRLAEYQAYIDFEMKIGDPARIQLIFERALVENCLVPDLWIRYSQYLDRQLKVKDLVLSVHNRAIRNCPWTVALWSRYLLAMERHGVDHQVISVTFEKALNAGFIQATDYVEIWQAYLDYLRRRVDFKQDSSKELEELRAAFTRALEYLKQEVEERFNESGDPSCVIMQNWARIEARLCNNMQKARELWDSIMTRGNAKYANMWLEYYNLERAHGDTQHCRKALHRAVQCTSDYPEHVCEVLLTMERTEGSLEDWDIAVQKTETRLARVNEQRMKAAEKEAALVQQEEEKAEQRKRARAEKKALKKKKKIRGPEKRGADEDDEKEWGDDEEEQPSKRRRVENSIPAAGETQNVEVAAGPAGKCAAVDVEPPSKQKEKAASLKRDMPKVLHDSSKDSITVFVSNLPYSMQEPDTKLRPLFEACGEVVQIRPIFSNRGDFRGYCYVEFKEEKSALQALEMDRKSVEGRPMFVSPCVDKSKNPDFKVFRYSTSLEKHKLFISGLPFSCTKEELEEICKAHGTVKDLRLVTNRAGKPKGLAYVEYENESQASQAVMKMDGMTIKENIIKVAISNPPQRKVPEKPETRKAPGGPMLLPQTYGARGKGRTQLSLLPRALQRPSAAAPQAENGPAAAPAVAAPAATEAPKMSNADFAKLFLRK
For the molecule B2, in test [1], the binding entry is “binds”.
